{"source": "PubChem BioAssay AID652259 (Drosophila RNAi Screening Center, 2013)", "test": "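Knock-downs that push a Wingless-driven reporter up or down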 (primary screen)", "system": "Drosophila clone 8 imaginal disc epithelial cells", "reagents": "long dsRNA against Drosophila genes", "challenge": "pathway stimulated by co-transfected Wingless expression plasmid", "read-out": "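Firefly luciferase from a tcf-site Wingless reporter, measured alongside co-transfected Renilla luciferase that tracks transfection; pathway stimulated by a Wingless plasmid; the firefly-to-Renilla ratio is not deposited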", "scale": "firefly reporter light: higher = more Wg reporter light, before normalisation; Renilla control light: higher = more transfected or surviving cells", "rule for the call": "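a knock-down is a candidate when at least two out of four statistical tests show it departing from its plate mean; one test alone signals a weak candidate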", "meaning of the calls": "active = candidate regulator (raises or lowers reporter); inactive = not a candidate", "note": "The deposit covers about 22,000 reagents; below is an unselected part of those with a known target gene and a result. Of all reagents, 233 (1.1%) were called active. 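Light values are raw, unnormalised plate reads; the ratio scores behind the reporter calls were not deposited.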 Names joined by + are all predicted targets of the reagent. No sequences are given here. The record does not give: the amount of reagent, the time to read-out, the dose of the treatment."}
{"target": "mbo", "amplicon": "DRSC16123", "firefly reporter light, replicate 1": 7420, "Renilla control light, replicate 1": 2872, "activity call": "inactive"}
{"target": "twf", "amplicon": "DRSC15466", "firefly reporter light, replicate 1": 5464, "Renilla control light, replicate 1": 1811, "activity call": "inactive"}
{"target": "ApepP", "amplicon": "DRSC01866", "firefly reporter light, replicate 1": 7494, "Renilla control light, replicate 1": 3362, "activity call": "inactive"}
{"target": "HLH3B", "amplicon": "DRSC18669", "firefly reporter light, replicate 1": 17256, "Renilla control light, replicate 1": 12073, "activity call": "inactive"}
{"target": "CG30447", "amplicon": "DRSC05820", "firefly reporter light, replicate 1": 19314, "Renilla control light, replicate 1": 9400, "activity call": "inactive"}
{"target": "Ranbp16", "amplicon": "DRSC20160", "firefly reporter light, replicate 1": 23840, "Renilla control light, replicate 1": 11241, "activity call": "inactive"}
{"target": "RunxA", "amplicon": "DRSC20400", "firefly reporter light, replicate 1": 4576, "Renilla control light, replicate 1": 1372, "activity call": "inactive"}
{"target": "RunxA", "amplicon": "DRSC20498", "firefly reporter light, replicate 1": 17223, "Renilla control light, replicate 1": 3447, "activity call": "inactive"}
{"target": "RunxA", "amplicon": "DRSC20524", "firefly reporter light, replicate 1": 17656, "Renilla control light, replicate 1": 9720, "activity call": "inactive"}
{"target": "RunxA", "amplicon": "DRSC21915", "firefly reporter light, replicate 1": 6.84e5, "firefly reporter light, replicate 2": 6.90e5, "Renilla control light, replicate 1": 3.02e5, "Renilla control light, replicate 2": 3.10e5, "activity call": "inactive"}
{"target": "Met75Ca + Met75Cb", "amplicon": "DRSC09549", "firefly reporter light, replicate 1": 3357, "Renilla control light, replicate 1": 1901, "activity call": "inactive"}
{"target": "Met75Ca + Met75Cb", "amplicon": "DRSC11221", "firefly reporter light, replicate 1": 11009, "Renilla control light, replicate 1": 3770, "activity call": "inactive"}
{"target": "Cyp12b2", "amplicon": "DRSC07364", "firefly reporter light, replicate 1": 6842, "Renilla control light, replicate 1": 2080, "activity call": "inactive"}
{"target": "Prx6a", "amplicon": "DRSC00565", "firefly reporter light, replicate 1": 15584, "Renilla control light, replicate 1": 5640, "activity call": "inactive"}
{"target": "CG18538", "amplicon": "DRSC06765", "firefly reporter light, replicate 1": 7595, "Renilla control light, replicate 1": 2359, "activity call": "inactive"}
{"target": "Abi", "amplicon": "DRSC14099", "firefly reporter light, replicate 1": 7339, "Renilla control light, replicate 1": 1884, "activity call": "inactive"}
{"target": "Cda9", "amplicon": "DRSC06593", "firefly reporter light, replicate 1": 3574, "Renilla control light, replicate 1": 1616, "activity call": "inactive"}
